Source: the supplement of paper PMC12067093, “Discovery and optimisation of a covalent ligand for TRIM25 and its application to targeted protein ubiquitination” (Chemical Science, 2025)
The other results are listed elsewhere or left out.

By UniProt entry, the sequences of proteins in these tests, tags left out. Where a name states a change or a piece, a line headed by the entry shows the natural chain unless it says otherwise.
UniProt P23919: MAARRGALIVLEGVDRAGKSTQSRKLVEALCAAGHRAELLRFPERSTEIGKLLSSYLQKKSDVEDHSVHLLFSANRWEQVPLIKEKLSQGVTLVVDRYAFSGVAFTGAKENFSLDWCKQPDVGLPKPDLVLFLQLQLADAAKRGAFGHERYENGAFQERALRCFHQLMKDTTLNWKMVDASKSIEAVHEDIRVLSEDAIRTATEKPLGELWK
UniProt Q9Y3R5: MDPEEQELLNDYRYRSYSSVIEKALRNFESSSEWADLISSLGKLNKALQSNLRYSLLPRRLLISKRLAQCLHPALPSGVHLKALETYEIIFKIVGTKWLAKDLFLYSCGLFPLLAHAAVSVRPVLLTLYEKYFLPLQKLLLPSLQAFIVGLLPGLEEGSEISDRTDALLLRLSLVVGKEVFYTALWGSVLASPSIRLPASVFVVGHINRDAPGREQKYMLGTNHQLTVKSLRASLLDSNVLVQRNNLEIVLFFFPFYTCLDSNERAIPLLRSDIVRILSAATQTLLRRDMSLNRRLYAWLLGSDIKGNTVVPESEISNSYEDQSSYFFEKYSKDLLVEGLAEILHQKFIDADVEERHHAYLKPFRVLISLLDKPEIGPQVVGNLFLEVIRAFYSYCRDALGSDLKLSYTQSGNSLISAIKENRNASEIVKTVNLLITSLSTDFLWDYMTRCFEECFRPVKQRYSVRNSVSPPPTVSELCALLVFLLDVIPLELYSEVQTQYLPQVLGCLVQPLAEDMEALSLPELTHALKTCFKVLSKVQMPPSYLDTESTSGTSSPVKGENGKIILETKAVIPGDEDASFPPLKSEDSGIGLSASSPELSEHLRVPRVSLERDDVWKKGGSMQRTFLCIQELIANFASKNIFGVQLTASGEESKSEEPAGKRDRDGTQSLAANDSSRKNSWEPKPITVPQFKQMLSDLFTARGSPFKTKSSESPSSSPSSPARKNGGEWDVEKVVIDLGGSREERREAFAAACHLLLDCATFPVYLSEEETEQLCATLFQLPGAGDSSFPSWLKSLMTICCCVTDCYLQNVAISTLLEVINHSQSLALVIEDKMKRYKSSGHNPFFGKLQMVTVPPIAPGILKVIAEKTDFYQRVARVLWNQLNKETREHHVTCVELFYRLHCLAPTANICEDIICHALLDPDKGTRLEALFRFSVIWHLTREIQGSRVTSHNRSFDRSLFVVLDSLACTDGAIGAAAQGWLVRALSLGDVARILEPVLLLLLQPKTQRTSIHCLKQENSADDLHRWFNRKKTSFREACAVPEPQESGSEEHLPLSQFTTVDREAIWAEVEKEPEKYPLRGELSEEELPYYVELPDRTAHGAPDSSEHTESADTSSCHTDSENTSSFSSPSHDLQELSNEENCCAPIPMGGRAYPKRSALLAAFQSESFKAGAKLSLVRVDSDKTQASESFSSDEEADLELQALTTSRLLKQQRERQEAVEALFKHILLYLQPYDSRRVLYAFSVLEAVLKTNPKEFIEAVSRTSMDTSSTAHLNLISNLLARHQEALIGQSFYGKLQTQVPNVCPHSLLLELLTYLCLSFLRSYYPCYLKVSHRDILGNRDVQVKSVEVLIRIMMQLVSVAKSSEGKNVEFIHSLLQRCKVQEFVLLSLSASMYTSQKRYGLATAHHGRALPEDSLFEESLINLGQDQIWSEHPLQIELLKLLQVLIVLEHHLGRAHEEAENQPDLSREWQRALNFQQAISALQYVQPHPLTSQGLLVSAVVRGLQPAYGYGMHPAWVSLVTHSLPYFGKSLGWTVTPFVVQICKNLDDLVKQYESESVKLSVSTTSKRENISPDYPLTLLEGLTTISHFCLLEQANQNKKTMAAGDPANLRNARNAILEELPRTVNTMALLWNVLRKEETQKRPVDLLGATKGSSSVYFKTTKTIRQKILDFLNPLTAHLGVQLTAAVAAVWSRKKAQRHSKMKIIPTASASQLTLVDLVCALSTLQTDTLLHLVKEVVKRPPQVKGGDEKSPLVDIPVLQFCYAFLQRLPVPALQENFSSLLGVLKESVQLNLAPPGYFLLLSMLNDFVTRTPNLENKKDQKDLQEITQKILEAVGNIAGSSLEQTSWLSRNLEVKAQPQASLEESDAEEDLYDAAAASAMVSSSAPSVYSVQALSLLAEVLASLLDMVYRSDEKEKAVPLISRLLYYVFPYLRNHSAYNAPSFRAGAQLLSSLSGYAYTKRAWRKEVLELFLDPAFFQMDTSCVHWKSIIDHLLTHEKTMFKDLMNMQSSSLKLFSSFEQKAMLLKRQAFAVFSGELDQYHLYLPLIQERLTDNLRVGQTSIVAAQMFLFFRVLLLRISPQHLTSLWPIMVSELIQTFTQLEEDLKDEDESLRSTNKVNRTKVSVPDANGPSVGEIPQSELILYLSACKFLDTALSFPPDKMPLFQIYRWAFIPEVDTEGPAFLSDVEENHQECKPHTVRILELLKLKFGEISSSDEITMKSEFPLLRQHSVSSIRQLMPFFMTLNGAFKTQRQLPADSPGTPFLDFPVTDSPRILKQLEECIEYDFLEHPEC
UniProt Q13409, whole entry, looked up: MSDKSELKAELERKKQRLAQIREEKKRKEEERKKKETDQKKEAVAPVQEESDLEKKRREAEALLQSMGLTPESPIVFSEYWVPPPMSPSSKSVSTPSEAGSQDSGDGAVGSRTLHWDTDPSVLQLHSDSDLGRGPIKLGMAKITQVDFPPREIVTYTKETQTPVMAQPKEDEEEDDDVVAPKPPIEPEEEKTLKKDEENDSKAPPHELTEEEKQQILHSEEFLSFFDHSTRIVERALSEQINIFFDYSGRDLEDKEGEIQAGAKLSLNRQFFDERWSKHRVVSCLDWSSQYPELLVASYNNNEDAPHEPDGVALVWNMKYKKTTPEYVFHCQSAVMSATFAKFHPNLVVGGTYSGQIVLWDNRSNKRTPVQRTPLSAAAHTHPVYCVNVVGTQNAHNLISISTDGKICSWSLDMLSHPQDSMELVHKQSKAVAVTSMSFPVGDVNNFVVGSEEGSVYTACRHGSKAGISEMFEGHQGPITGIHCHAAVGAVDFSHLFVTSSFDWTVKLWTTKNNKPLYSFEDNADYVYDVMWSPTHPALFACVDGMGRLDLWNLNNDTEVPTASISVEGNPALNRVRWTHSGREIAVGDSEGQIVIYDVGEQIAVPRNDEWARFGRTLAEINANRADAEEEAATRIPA
UniProt P26358: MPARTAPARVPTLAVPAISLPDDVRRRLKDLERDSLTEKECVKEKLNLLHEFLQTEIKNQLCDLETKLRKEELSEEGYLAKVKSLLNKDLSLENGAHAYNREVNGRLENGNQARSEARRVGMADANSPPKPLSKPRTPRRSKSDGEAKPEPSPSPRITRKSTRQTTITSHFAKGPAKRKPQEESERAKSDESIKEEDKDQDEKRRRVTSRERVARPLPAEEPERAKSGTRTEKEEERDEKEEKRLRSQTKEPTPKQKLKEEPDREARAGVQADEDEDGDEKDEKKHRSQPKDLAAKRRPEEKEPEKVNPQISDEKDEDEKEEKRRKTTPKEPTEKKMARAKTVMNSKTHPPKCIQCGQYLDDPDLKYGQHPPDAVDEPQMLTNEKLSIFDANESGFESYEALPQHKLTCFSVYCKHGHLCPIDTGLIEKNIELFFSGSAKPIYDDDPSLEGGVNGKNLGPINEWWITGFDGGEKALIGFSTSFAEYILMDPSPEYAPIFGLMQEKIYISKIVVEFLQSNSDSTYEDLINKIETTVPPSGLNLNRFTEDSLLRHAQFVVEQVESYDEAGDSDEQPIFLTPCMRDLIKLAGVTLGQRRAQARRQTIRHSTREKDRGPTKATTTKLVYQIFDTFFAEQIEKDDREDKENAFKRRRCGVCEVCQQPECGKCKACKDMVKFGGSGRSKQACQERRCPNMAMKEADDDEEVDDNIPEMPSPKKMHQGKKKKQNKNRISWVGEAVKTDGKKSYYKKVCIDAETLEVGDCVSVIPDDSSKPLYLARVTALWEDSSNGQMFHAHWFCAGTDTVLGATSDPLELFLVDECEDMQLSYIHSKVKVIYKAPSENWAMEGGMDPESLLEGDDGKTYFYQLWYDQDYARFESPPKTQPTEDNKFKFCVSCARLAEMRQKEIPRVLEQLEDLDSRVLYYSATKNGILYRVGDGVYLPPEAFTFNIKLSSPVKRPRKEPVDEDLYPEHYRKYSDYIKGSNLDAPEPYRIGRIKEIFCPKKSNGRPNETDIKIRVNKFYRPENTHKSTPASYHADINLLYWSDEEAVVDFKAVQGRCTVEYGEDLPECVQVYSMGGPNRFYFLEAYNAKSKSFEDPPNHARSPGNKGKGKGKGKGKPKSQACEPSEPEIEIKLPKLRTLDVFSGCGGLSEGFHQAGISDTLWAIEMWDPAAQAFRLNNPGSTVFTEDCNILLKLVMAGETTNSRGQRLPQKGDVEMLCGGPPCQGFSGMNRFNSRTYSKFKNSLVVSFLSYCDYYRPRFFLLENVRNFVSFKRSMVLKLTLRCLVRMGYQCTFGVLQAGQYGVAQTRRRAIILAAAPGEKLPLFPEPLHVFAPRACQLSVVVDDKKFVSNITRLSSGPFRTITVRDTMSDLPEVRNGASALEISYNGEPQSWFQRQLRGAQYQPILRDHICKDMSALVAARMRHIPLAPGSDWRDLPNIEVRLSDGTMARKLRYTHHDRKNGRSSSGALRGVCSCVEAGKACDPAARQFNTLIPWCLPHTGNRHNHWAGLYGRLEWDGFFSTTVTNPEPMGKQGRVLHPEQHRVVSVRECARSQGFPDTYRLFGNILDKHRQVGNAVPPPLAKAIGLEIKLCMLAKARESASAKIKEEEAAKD
UniProt Q92608: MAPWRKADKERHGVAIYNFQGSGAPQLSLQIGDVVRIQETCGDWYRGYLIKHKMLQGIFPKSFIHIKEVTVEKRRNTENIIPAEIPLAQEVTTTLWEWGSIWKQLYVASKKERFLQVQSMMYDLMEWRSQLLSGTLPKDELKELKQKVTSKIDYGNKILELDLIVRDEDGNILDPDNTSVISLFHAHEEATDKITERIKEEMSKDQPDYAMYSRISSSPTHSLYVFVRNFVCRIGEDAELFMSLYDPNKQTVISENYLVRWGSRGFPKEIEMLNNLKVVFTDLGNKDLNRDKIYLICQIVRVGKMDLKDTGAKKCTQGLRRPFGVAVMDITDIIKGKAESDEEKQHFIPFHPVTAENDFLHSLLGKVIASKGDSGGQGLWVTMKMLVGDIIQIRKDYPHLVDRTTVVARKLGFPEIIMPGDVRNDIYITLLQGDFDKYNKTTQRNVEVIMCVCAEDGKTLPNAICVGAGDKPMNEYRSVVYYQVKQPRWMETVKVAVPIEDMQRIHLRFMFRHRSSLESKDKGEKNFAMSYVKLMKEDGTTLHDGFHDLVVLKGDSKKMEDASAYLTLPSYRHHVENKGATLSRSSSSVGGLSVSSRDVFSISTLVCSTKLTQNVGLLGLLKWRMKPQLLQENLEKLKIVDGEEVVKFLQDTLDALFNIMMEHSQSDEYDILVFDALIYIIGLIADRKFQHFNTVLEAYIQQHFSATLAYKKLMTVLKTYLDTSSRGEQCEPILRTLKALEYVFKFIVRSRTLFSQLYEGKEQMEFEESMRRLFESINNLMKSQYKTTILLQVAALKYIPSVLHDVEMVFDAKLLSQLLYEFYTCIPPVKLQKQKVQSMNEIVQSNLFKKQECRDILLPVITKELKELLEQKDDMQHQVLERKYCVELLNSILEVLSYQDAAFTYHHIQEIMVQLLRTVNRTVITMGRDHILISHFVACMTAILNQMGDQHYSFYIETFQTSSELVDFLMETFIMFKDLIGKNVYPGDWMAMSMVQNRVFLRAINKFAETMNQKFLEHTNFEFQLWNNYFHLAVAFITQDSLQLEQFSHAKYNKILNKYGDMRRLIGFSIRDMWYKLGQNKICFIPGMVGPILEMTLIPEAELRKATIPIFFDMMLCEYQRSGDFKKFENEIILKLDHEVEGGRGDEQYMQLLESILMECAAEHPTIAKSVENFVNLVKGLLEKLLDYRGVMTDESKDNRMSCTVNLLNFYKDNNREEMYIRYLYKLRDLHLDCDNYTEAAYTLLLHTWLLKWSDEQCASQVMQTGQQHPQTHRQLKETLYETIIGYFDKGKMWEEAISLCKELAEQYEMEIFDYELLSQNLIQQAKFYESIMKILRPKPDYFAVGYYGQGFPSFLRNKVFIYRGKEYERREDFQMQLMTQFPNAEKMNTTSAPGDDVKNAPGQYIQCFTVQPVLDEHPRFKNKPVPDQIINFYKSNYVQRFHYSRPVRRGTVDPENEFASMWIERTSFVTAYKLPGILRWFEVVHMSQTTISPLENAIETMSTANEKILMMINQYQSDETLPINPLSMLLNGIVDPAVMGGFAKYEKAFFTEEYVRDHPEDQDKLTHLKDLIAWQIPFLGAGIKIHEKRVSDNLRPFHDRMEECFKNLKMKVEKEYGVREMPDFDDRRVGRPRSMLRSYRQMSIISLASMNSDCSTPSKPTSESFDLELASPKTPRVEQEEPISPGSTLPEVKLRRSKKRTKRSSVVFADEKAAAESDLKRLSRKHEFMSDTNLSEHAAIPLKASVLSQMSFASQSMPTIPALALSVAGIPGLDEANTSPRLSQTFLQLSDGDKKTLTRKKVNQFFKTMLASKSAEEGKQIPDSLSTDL

What follows are targets tested with CC1Cc2ccccc2N1C(=O)C1CCCN(C1)C(=O)CCl (mixture of isomers) [TRIM25 ligand 11 (diastereomer mixture)] (assay: probe-labelled cysteine peptide fold change vs DMSO (competition) (log2 fold change); higher = less target engagement (more negative = stronger competition)). Conditions: 10 µM; THP-1; incubation time: 4 h.
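Also: competitive chemoproteomic profiling in live THP-1 cells with an iodoacetamide desthiobiotin (IA-DTB) probe, comparing probe-labelled peptide intensities in compound-treated cells against DMSO-treated controls.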

Compared with “DYNC1H1_Q14204_1977_MLSAVSQQVQCIQEALR (UniProt Q14204)”, “DYNC1H1_Q14204_4510_NIHVCLGGLFVPEAYITATR (UniProt Q14204)” is lower in “probe-labelled cysteine peptide fold change” value: 0.218 for the first, -0.0375 for the second.

First: DPP3_Q9NY33_176_EGITTYFSGNCTMEDAK (UniProt Q9NY33)
Second: DUS3L_Q96G46_408_GGGCALMNR (UniProt Q96G46)
The “probe-labelled cysteine peptide fold change” value of the first is higher: -0.0308 for the first, -0.192 for the second.

Going from “DPYSL2_Q16555_504_GLYDGPVCEVSVTPK (UniProt Q16555)” to “DUS3L_Q96G46_315_LYLAPLTTCGNLPFR (UniProt Q96G46)”, the “probe-labelled cysteine peptide fold change” value rises from 0.000425 to 0.136.

Compared with “DTYMK_P23919_163_CFHQLMK (UniProt P23919)”, “DOP1B_Q9Y3R5_1040_EACAVPEPQESGSEEHLPLSQFTTVDR (UniProt Q9Y3R5)” is lower in “probe-labelled cysteine peptide fold change” value: 0.245 for the first, -0.00561 for the second.

Going from “DYNC1H1_Q14204_2639_TFDHYCEYRR (UniProt Q14204)” to “DSCR3_O14972_137_TCEFIVHSAPQK (UniProt O14972)”, the “probe-labelled cysteine peptide fold change” value rises from -0.177 to -0.0619.

Going from “DPP3_Q9NY33_654_ALYEGYATVTDAPPECFLTLR (UniProt Q9NY33)” to “DUS3L_Q96G46_282_TCGPLTDEDVVR (UniProt Q96G46)”, the “probe-labelled cysteine peptide fold change” value falls from -0.202 to -0.261.

First: DSN1_Q9H410_65_KGGNCDLSHQER (UniProt Q9H410)
Second: DYNC1I2_Q13409_331_KTTPEYVFHCQSAVMSATFAK (UniProt Q13409)
The “probe-labelled cysteine peptide fold change” value of the first is lower: -0.183 for the first, 0.134 for the second.

First: DRG2_P55039_319_GASVEHVCHR (UniProt P55039)
Second: DNMT1_P26358_1339_ACQLSVVVDDKK (UniProt P26358)
The “probe-labelled cysteine peptide fold change” value of the first is higher: 0.122 for the first, -0.0891 for the second.

Going from “DYNC1H1_Q14204_2639_TFDHYCEYR (UniProt Q14204)” to “DOK3_Q7L591_144_LADCVSVLPADGESCPR (UniProt Q7L591)”, the “probe-labelled cysteine peptide fold change” value falls from 0.159 to 0.0534.

First: DOCK11_Q5JSL3_1110_VQDSNLEYSLSDEYCK (UniProt Q5JSL3)
Second: DNMT1_P26358_1125_SQACEPSEPEIEIK (UniProt P26358)
The “probe-labelled cysteine peptide fold change” value of the first is higher: 0.137 for the first, -0.098 for the second.

Going from “DPYSL2_Q16555_132+133_SCCDYSLHVDISEWHK (UniProt Q16555)” to “DNPH1_O43598_26_PALYFCGSIR (UniProt O43598)”, the “probe-labelled cysteine peptide fold change” value falls from 0.17 to -0.075.

Going from “DTWD1_Q8N5C7_126_LLAPEFVNIYTYPCIPEYEEK (UniProt Q8N5C7)” to “DOK2_O60496_36_FGASLYGGSDCALAR (UniProt O60496)”, the “probe-labelled cysteine peptide fold change” value falls from 0.0474 to -0.0137.

Going from “DUSP23_Q9BVJ7_67_IPDFCPPAPDQIDR (UniProt Q9BVJ7)” to “DYNC1H1_Q14204_4438_QDLADVVQVCEGK (UniProt Q14204)”, the “probe-labelled cysteine peptide fold change” value rises from -0.0758 to 0.0826.

Going from “DOCK2_Q92608_1203_MSCTVNLLNFYK (UniProt Q92608)” to “DYNC1H1_Q14204_2594_PLVLCGPPGSGK (UniProt Q14204)”, the “probe-labelled cysteine peptide fold change” value rises from 0.0959 to 0.128.

Compared with “DRAP1_Q14919_73_QCIELEQQFDFLK (UniProt Q14919)”, “EAPP_Q56P03_259+262_AETDVEEIYHPVMCTECSTEVAVYDKDEVFHFFNVLASHS (UniProt Q56P03)” is higher in “probe-labelled cysteine peptide fold change” value: -0.144 for the first, 0.271 for the second.

Compared with “DOCK2_Q92608_1258_WSDEQCASQVMQTGQQHPQTHR (UniProt Q92608)”, “DSTN_P60981_46_CIIVEEGK (UniProt P60981)” is higher in “probe-labelled cysteine peptide fold change” value: 0.157 for the first, 0.187 for the second.

Going from “DSTN_P60981_135_HECQANGPEDLNR (UniProt P60981)” to “DYNC1H1_Q14204_4121_LHSLQPHACFR (UniProt Q14204)”, the “probe-labelled cysteine peptide fold change” value rises from -0.0264 to 0.0169.

With “DPP9_Q86TI2_184_TQCSGPR (UniProt Q86TI2)” the “probe-labelled cysteine peptide fold change” value was -0.111.

Same assay, conditions: 50 µM; THP-1; incubation time: 4 h

Compared with “DYNC1H1_Q14204_1977_MLSAVSQQVQCIQEALR (UniProt Q14204)”, “DYNC1H1_Q14204_4510_NIHVCLGGLFVPEAYITATR (UniProt Q14204)” is higher in “probe-labelled cysteine peptide fold change” value: 0.0709 for the first, 0.113 for the second.

Going from “DPP3_Q9NY33_176_EGITTYFSGNCTMEDAK (UniProt Q9NY33)” to “DUS3L_Q96G46_408_GGGCALMNR (UniProt Q96G46)”, the “probe-labelled cysteine peptide fold change” value falls from 0.0141 to -0.169.

First: DPYSL2_Q16555_504_GLYDGPVCEVSVTPK (UniProt Q16555)
Second: DUS3L_Q96G46_315_LYLAPLTTCGNLPFR (UniProt Q96G46)
The “probe-labelled cysteine peptide fold change” value of the first is higher: 0.0459 for the first, 0.0337 for the second.

First: DTYMK_P23919_163_CFHQLMK (UniProt P23919)
Second: DOP1B_Q9Y3R5_1040_EACAVPEPQESGSEEHLPLSQFTTVDR (UniProt Q9Y3R5)
The “probe-labelled cysteine peptide fold change” value of the first is higher: 0.1 for the first, -0.145 for the second.

Compared with “DYNC1H1_Q14204_2639_TFDHYCEYRR (UniProt Q14204)”, “DSCR3_O14972_137_TCEFIVHSAPQK (UniProt O14972)” is higher in “probe-labelled cysteine peptide fold change” value: -0.106 for the first, 0.099 for the second.

Going from “DPP3_Q9NY33_654_ALYEGYATVTDAPPECFLTLR (UniProt Q9NY33)” to “DUS3L_Q96G46_282_TCGPLTDEDVVR (UniProt Q96G46)”, the “probe-labelled cysteine peptide fold change” value falls from -0.11 to -0.174.

First: DSN1_Q9H410_65_KGGNCDLSHQER (UniProt Q9H410)
Second: DYNC1I2_Q13409_331_KTTPEYVFHCQSAVMSATFAK (UniProt Q13409)
The “probe-labelled cysteine peptide fold change” value of the first is lower: -0.238 for the first, 0.233 for the second.

Compared with “DRG2_P55039_319_GASVEHVCHR (UniProt P55039)”, “DNMT1_P26358_1339_ACQLSVVVDDKK (UniProt P26358)” is lower in “probe-labelled cysteine peptide fold change” value: 0.208 for the first, 0.0706 for the second.

Compared with “DYNC1H1_Q14204_2639_TFDHYCEYR (UniProt Q14204)”, “DOK3_Q7L591_144_LADCVSVLPADGESCPR (UniProt Q7L591)” is lower in “probe-labelled cysteine peptide fold change” value: 0.134 for the first, 0.0981 for the second.

Compared with “DOCK11_Q5JSL3_1110_VQDSNLEYSLSDEYCK (UniProt Q5JSL3)”, “DNMT1_P26358_1125_SQACEPSEPEIEIK (UniProt P26358)” is lower in “probe-labelled cysteine peptide fold change” value: 0.139 for the first, -0.305 for the second.

Compared with “DPYSL2_Q16555_132+133_SCCDYSLHVDISEWHK (UniProt Q16555)”, “DNPH1_O43598_26_PALYFCGSIR (UniProt O43598)” is lower in “probe-labelled cysteine peptide fold change” value: 0.000964 for the first, -0.00676 for the second.

First: DTWD1_Q8N5C7_126_LLAPEFVNIYTYPCIPEYEEK (UniProt Q8N5C7)
Second: DOK2_O60496_36_FGASLYGGSDCALAR (UniProt O60496)
The “probe-labelled cysteine peptide fold change” value of the first is lower: -0.108 for the first, 0.00145 for the second.

First: DUSP23_Q9BVJ7_67_IPDFCPPAPDQIDR (UniProt Q9BVJ7)
Second: DYNC1H1_Q14204_4438_QDLADVVQVCEGK (UniProt Q14204)
The “probe-labelled cysteine peptide fold change” value of the first is lower: -0.026 for the first, 0.0819 for the second.

Compared with “DOCK2_Q92608_1203_MSCTVNLLNFYK (UniProt Q92608)”, “DYNC1H1_Q14204_2594_PLVLCGPPGSGK (UniProt Q14204)” is lower in “probe-labelled cysteine peptide fold change” value: -0.0016 for the first, -0.0276 for the second.

Compared with “DRAP1_Q14919_73_QCIELEQQFDFLK (UniProt Q14919)”, “EAPP_Q56P03_259+262_AETDVEEIYHPVMCTECSTEVAVYDKDEVFHFFNVLASHS (UniProt Q56P03)” is higher in “probe-labelled cysteine peptide fold change” value: -0.0354 for the first, -0.0211 for the second.

Going from “DOCK2_Q92608_1258_WSDEQCASQVMQTGQQHPQTHR (UniProt Q92608)” to “DSTN_P60981_46_CIIVEEGK (UniProt P60981)”, the “probe-labelled cysteine peptide fold change” value rises from -0.015 to 0.135.

Compared with “DSTN_P60981_135_HECQANGPEDLNR (UniProt P60981)”, “DYNC1H1_Q14204_4121_LHSLQPHACFR (UniProt Q14204)” is higher in “probe-labelled cysteine peptide fold change” value: 0.0817 for the first, 0.278 for the second.

With “DPP9_Q86TI2_184_TQCSGPR (UniProt Q86TI2)” the “probe-labelled cysteine peptide fold change” value was -0.073.
